We go through 53 molecules from the supplement of paper PMC4371806.

The full ranking holds about 1,600 compounds; the median of “plate-normalized OD600 growth (mean of duplicates)” is about 0.31, and the lowest 2% start at about 0.23. The list shows a part of the results.

The test system of this assay is Escherichia coli BW25113. In words: plate-normalized OD600 growth (mean of duplicates) (OD600 (normalized)); higher = more growth (less inhibition). To be noted: 10 µM. The procedure: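 E. coli BW25113 in LB (100 µl, 96-well, no shaking) was exposed to 10 µM of each compound (here the ChemBridge subset of a ~30,000-member library) and grown at 37°C for 24 h or 15°C for 48 h, in duplicate. Growth was read as OD600 and the duplicate ODs were normalized across screening plates to correct plate-to-plate variation.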

With `Brc1ccc(CN2CCN(c3ccccc3)CC2)s1`, the “plate-normalized OD600 growth” value by setting is: (temperature: 15°C, 48 h) 0.248; (temperature: 37°C, 24 h) 0.615.

For `NC(=O)c1c(NC(=O)C2CCCO2)sc2c1CCCCCC2` (stereo unspecified), the “plate-normalized OD600 growth” value runs as follows: (temperature: 15°C, 48 h) 0.258; (temperature: 37°C, 24 h) 0.622.

On to `CC1=CCC2C(=O)N(Cc3ccccc3)C(=O)C2C1` (stereo unspecified), for which the “plate-normalized OD600 growth” value is, setting by setting: (temperature: 15°C, 48 h) 0.244; (temperature: 37°C, 24 h) 0.612.

In the case of `C/C(=C\c1ccccc1)CN1CCN(c2ccccc2F)CC1`, the “plate-normalized OD600 growth” value is, setting by setting: (temperature: 15°C, 48 h) 0.261; (temperature: 37°C, 24 h) 0.64.

On to `Cc1cc([O-])c2n(cn[n+]2Cc2ccccc2)n1`, for which the “plate-normalized OD600 growth” value is, setting by setting: (temperature: 15°C, 48 h) 0.262; (temperature: 37°C, 24 h) 0.631.

For the molecule `O=C(Nc1ccc(F)cc1)C1CC(=O)N(c2ccc(Br)cc2)C1` (stereo unspecified), the “plate-normalized OD600 growth” value (temperature: 15°C, 48 h) is 0.24 and the “plate-normalized OD600 growth” value (temperature: 37°C, 24 h) was 0.603.

Consider `O=C(Nc1ccc(F)cc1F)c1cccc(Br)c1`, for which the “plate-normalized OD600 growth” value is, setting by setting: (temperature: 15°C, 48 h) 0.259; (temperature: 37°C, 24 h) 0.605.

Regarding `CC(C)(C)S(=O)(=O)c1sc(C=O)cc1C=O`, the “plate-normalized OD600 growth” value stood at 0.241 (temperature: 15°C, 48 h) and 0.618 (temperature: 37°C, 24 h).

With `COc1ccc(/C=C(\NC(=O)c2ccco2)C(=O)N2CCOCC2)cc1`, the “plate-normalized OD600 growth” value by setting is: (temperature: 15°C, 48 h) 0.264; (temperature: 37°C, 24 h) 0.635.

In the case of `N#Cc1c(NC(=O)c2ccc(Cl)cc2Cl)sc2c1CCCCC2`, the “plate-normalized OD600 growth” value reads like this: (temperature: 15°C, 48 h) 0.245; (temperature: 37°C, 24 h) 0.62.

In the case of `N#Cc1ccccc1NC(=O)C1CC1(c1ccccc1)c1ccccc1` (stereo unspecified), the “plate-normalized OD600 growth” value (temperature: 15°C, 48 h) was determined as 0.255 and the “plate-normalized OD600 growth” value (temperature: 37°C, 24 h) is 0.635.

As to `O=C(Cc1ccc(Br)cc1)N1CCCc2ccccc21`, the “plate-normalized OD600 growth” value by setting is: (temperature: 15°C, 48 h) 0.248; (temperature: 37°C, 24 h) 0.622.

For the molecule `O=C(NCc1ccccc1)c1cccc(S(=O)(=O)N2CCCCC2)c1`, the “plate-normalized OD600 growth” value (temperature: 15°C, 48 h) worked out at 0.238 and the “plate-normalized OD600 growth” value (temperature: 37°C, 24 h) was 0.612.

For the molecule `NC(=O)c1ccc2c(c1)C1c3ccccc3C2c2ccccc21`, the “plate-normalized OD600 growth” value was 0.237 (temperature: 15°C, 48 h) and 0.608 (temperature: 37°C, 24 h).

Turning to `Cc1cccc(N=C(N)NC(N)=O)c1`, the “plate-normalized OD600 growth” value was 0.253 (temperature: 15°C, 48 h) and 0.638 (temperature: 37°C, 24 h).

Consider `CCN(CC)C(=O)CSc1nc(O)cc(=O)n1-c1ccccc1OC`, for which the “plate-normalized OD600 growth” value worked out at 0.259 (temperature: 15°C, 48 h) and 0.626 (temperature: 37°C, 24 h).

For `Fc1ccccc1-c1nc(-c2ccncc2)no1`, the “plate-normalized OD600 growth” value runs as follows: (temperature: 15°C, 48 h) 0.238; (temperature: 37°C, 24 h) 0.613.

On to `O=c1[nH]c(/C=C/c2cccc(I)c2)c([N+](=O)[O-])c(=O)[nH]1`, for which the “plate-normalized OD600 growth” value is 0.265 (temperature: 15°C, 48 h) and 0.643 (temperature: 37°C, 24 h).

For `CCN1CCC(N2CCCC(C(=O)N(CC)CC)C2)CC1` (stereo unspecified), the “plate-normalized OD600 growth” value amounted to 0.237 (temperature: 15°C, 48 h) and 0.589 (temperature: 37°C, 24 h).

On to `COc1ccc(CN2CCCN(C)CC2)c(OC)c1`, for which the “plate-normalized OD600 growth” value is, setting by setting: (temperature: 15°C, 48 h) 0.25; (temperature: 37°C, 24 h) 0.619.

For the molecule `COc1cccc(OC)c1C(=O)Nc1cc(C)cc(C)c1`, the “plate-normalized OD600 growth” value is 0.242 (temperature: 15°C, 48 h) and 0.611 (temperature: 37°C, 24 h).

On to `N#CC1=C(N)OC2=C(C(=O)CCC2)C1c1ccc(Oc2ccc([N+](=O)[O-])cc2Cl)cc1` (stereo unspecified), for which the “plate-normalized OD600 growth” value came out at 0.255 (temperature: 15°C, 48 h) and 0.645 (temperature: 37°C, 24 h).

With `Cc1ncc([N+](=O)[O-])n1Cc1ccccc1Cl`, the “plate-normalized OD600 growth” value (temperature: 15°C, 48 h) was found to be 0.251 and the “plate-normalized OD600 growth” value (temperature: 37°C, 24 h) was 0.61.

For the molecule `O=C1CCCc2sc([N+](=O)[O-])cc21`, the “plate-normalized OD600 growth” value by setting is: (temperature: 15°C, 48 h) 0.262; (temperature: 37°C, 24 h) 0.676.

`Cc1sc2ncnc(SCC(=O)O)c2c1C`: the “plate-normalized OD600 growth” value worked out at 0.249 (temperature: 15°C, 48 h) and 0.612 (temperature: 37°C, 24 h).

Regarding `CCCN1CCC(NCc2ccc(Cl)c(Cl)c2)CC1`, the “plate-normalized OD600 growth” value (temperature: 15°C, 48 h) amounted to 0.247 and the “plate-normalized OD600 growth” value (temperature: 37°C, 24 h) was determined as 0.587.

As to `COc1ccccc1N1CCN(Cc2cccs2)CC1`, the “plate-normalized OD600 growth” value (temperature: 15°C, 48 h) was found to be 0.235 and the “plate-normalized OD600 growth” value (temperature: 37°C, 24 h) came to 0.598.

For `CCSc1cnn(-c2ccccc2)c(=O)c1SCC`, the “plate-normalized OD600 growth” value (temperature: 15°C, 48 h) came out at 0.261 and the “plate-normalized OD600 growth” value (temperature: 37°C, 24 h) amounted to 0.61.

`Cc1cc(NCc2cccnc2)ccc1Br`: the “plate-normalized OD600 growth” value reads like this: (temperature: 15°C, 48 h) 0.274; (temperature: 37°C, 24 h) 0.635.

For `Cc1cn2cc(-c3ccc([N+](=O)[O-])cc3)nc2s1`, the “plate-normalized OD600 growth” value amounted to 0.255 (temperature: 15°C, 48 h) and 0.654 (temperature: 37°C, 24 h).

Turning to `Nc1ccc2c(c1)S(=O)(=O)c1cc(N)ccc1O2`, the “plate-normalized OD600 growth” value is, setting by setting: (temperature: 15°C, 48 h) 0.253; (temperature: 37°C, 24 h) 0.625.

For the molecule `CCC(=O)Nc1ccc2nc(C)[nH]c2c1`, the “plate-normalized OD600 growth” value is, setting by setting: (temperature: 15°C, 48 h) 0.239; (temperature: 37°C, 24 h) 0.598.

In the case of `O=C1CC(N2CCOCC2)C(=O)N1c1ccc(I)cc1` (stereo unspecified), the “plate-normalized OD600 growth” value is, setting by setting: (temperature: 15°C, 48 h) 0.257; (temperature: 37°C, 24 h) 0.645.

Regarding `O=S(=O)(NCCc1ccccc1)c1cccc2nsnc12`, the “plate-normalized OD600 growth” value reads like this: (temperature: 15°C, 48 h) 0.241; (temperature: 37°C, 24 h) 0.666.

`O=C1c2ccccc2C(=O)N1S(=O)(=O)c1ccccc1`: the “plate-normalized OD600 growth” value (temperature: 15°C, 48 h) turned out to be 0.256 and the “plate-normalized OD600 growth” value (temperature: 37°C, 24 h) amounted to 0.622.

As for `COc1cccc(Nc2nc(-c3ccc(OC)c(F)c3)cs2)c1`, the “plate-normalized OD600 growth” value worked out at 0.245 (temperature: 15°C, 48 h) and 0.609 (temperature: 37°C, 24 h).

On to `CC(=O)c1cccc(NC(=O)CSCc2cccc(Br)c2)c1`, for which the “plate-normalized OD600 growth” value is 0.245 (temperature: 15°C, 48 h) and 0.625 (temperature: 37°C, 24 h).

As to `Cc1ccc(C23CC4CC(CC(O)(C4)C2)C3)cc1[N+](=O)[O-]`, the “plate-normalized OD600 growth” value (temperature: 15°C, 48 h) was determined as 0.235 and the “plate-normalized OD600 growth” value (temperature: 37°C, 24 h) turned out to be 0.638.

Regarding `CCCOc1ccc(CC(=N)N)cc1`, the “plate-normalized OD600 growth” value is, setting by setting: (temperature: 15°C, 48 h) 0.247; (temperature: 37°C, 24 h) 0.617.

Regarding `O=C(O)Cn1c2ccccc2c2cc([N+](=O)[O-])ccc21`, the “plate-normalized OD600 growth” value reads like this: (temperature: 15°C, 48 h) 0.226; (temperature: 37°C, 24 h) 0.625.

Take `O=C(CN1CCN(c2ccc(Cl)cc2[N+](=O)[O-])CC1)N1CCOCC1`: the “plate-normalized OD600 growth” value runs as follows: (temperature: 15°C, 48 h) 0.236; (temperature: 37°C, 24 h) 0.602.

For the molecule `N=c1c2c3c(sc2nc2n1CCCCC2)CCCCC3`, the “plate-normalized OD600 growth” value by setting is: (temperature: 15°C, 48 h) 0.24; (temperature: 37°C, 24 h) 0.61.

Turning to `CCOC(=O)N1CCN(Cc2ccccc2Cl)CC1`, the “plate-normalized OD600 growth” value runs as follows: (temperature: 15°C, 48 h) 0.244; (temperature: 37°C, 24 h) 0.621.

`CN(C)c1ccc(CN2CCc3ccccc3C2)cc1`: the “plate-normalized OD600 growth” value worked out at 0.244 (temperature: 15°C, 48 h) and 0.619 (temperature: 37°C, 24 h).

With `N#Cc1c(N)nc(SCC(=O)c2ccc(Cl)cc2)c(C#N)c1-c1ccco1`, the “plate-normalized OD600 growth” value amounted to 0.257 (temperature: 15°C, 48 h) and 0.615 (temperature: 37°C, 24 h).

As for `COc1ccc(C2=NCCc3cc(OC)c(OC)cc32)cc1`, the “plate-normalized OD600 growth” value by setting is: (temperature: 15°C, 48 h) 0.249; (temperature: 37°C, 24 h) 0.605.

`Oc1ccccc1-c1noc(-c2ccccc2O)n1`: the “plate-normalized OD600 growth” value runs as follows: (temperature: 15°C, 48 h) 0.237; (temperature: 37°C, 24 h) 0.604.

For `COc1ccc(C2CC(C3C(=O)c4ccccc4C3=O)=NN2)cc1` (stereo unspecified), the “plate-normalized OD600 growth” value is 0.249 (temperature: 15°C, 48 h) and 0.607 (temperature: 37°C, 24 h).

Consider `COc1ccc(OC)c(Nc2nc(C)c(C(C)=O)s2)c1`, for which the “plate-normalized OD600 growth” value runs as follows: (temperature: 15°C, 48 h) 0.272; (temperature: 37°C, 24 h) 0.646.

Turning to `Cc1ccc(NC(=O)C2C3C4CCC(C4)C23)c(C)c1` (stereo unspecified), the “plate-normalized OD600 growth” value (temperature: 15°C, 48 h) was 0.236 and the “plate-normalized OD600 growth” value (temperature: 37°C, 24 h) came to 0.591.

For the molecule `O=C1CC(N2CCN(C/C=C/c3ccccc3)CC2)C(=O)N1c1ccc(Cl)cc1` (stereo unspecified), the “plate-normalized OD600 growth” value by setting is: (temperature: 15°C, 48 h) 0.247; (temperature: 37°C, 24 h) 0.628.

On to `COc1ccc(Nc2ncc(C#N)c(Nc3ccccc3)c2C#N)cc1`, for which the “plate-normalized OD600 growth” value reads like this: (temperature: 15°C, 48 h) 0.253; (temperature: 37°C, 24 h) 0.633.

In the case of `[O-][n+]1c2c(nn1-c1ccccc1)-c1nonc1CC2`, the “plate-normalized OD600 growth” value came to 0.258 (temperature: 15°C, 48 h) and 0.618 (temperature: 37°C, 24 h).
